The inconclusive results got no clear call from the source; some entries with a clear call stand among them for comparison. Where the call is inconclusive, the potency comes from a doubtful curve fit. Activity calls are given as the source filed them. Rule for the calls: active = hit-call score of the fitted dose curve at least 0.9, where 1 is the maximum; inconclusive = response in the unintended direction; inactive = score below 0.9.
target: human Beta-secretase (BACE), BACE1 (gene 23621) (UniProt P56817); experiment: NVS_ENZ_hBACE: NovaScreen (NVS) Enzymatic Assay for human Beta-secretase (BACE) (AID 2283140);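 note: hits are inhibitors that reduce fluorescent substrate signal versus DMSO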
Summary of the method: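 Fluorescence intensity read-out of protease activity defines this endpoint; signal loss relative to DMSO baseline marks inhibition. Recombinant enzyme from SF9 cells, cell-free format, 1 h exposure. Single-concentration duplicate screen (25 uM) precedes concentration-series follow-up.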

Protein sequences, listed by entry. Tags and fused reporters are not part of them. Lines headed by an entry give the natural chain unless they say otherwise; changes in a name come on top.
UniProt P56817: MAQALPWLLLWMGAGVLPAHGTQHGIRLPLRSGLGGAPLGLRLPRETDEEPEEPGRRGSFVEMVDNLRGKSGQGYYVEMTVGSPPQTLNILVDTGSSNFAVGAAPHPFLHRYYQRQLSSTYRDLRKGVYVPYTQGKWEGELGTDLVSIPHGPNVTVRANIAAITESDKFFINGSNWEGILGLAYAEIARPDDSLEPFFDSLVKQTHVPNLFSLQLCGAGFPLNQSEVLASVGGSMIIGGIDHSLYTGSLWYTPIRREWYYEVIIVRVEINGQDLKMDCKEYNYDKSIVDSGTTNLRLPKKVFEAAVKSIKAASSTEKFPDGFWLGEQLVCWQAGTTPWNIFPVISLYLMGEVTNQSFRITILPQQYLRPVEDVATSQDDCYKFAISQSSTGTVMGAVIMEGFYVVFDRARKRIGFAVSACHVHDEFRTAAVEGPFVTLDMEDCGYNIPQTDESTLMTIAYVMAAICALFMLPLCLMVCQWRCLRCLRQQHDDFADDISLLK
UniProt P31751: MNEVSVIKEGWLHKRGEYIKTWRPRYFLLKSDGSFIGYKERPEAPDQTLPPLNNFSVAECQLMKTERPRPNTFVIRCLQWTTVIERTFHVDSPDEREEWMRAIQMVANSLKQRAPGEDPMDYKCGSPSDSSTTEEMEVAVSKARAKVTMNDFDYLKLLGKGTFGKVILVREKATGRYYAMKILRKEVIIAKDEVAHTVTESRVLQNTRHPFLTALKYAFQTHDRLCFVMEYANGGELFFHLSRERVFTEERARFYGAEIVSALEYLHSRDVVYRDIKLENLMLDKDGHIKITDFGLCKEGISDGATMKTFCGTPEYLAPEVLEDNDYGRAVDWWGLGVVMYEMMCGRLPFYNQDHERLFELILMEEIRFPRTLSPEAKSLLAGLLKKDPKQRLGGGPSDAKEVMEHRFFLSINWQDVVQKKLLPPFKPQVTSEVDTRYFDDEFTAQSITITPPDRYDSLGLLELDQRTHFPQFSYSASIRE

Structure (SMILES)	outcome	AC50
Oc1c(Cl)c(Cl)c(Cl)c(Cl)c1Cl	inactive	–
CCCCCCCCCC[N+](C)(C)CCCCCCCCCC	–	inconclusive: 25 µM
CC1(C)C(C=C(Cl)Cl)C1C(=O)OC(C#N)c1cccc(Oc2ccccc2)c1 (centres undefined)	inactive	–
CCCCOC(=O)c1ccccc1C(=O)OCCCC	–	inconclusive: 0.409 µM
O=c1c2ccccc2c(=O)c2c1cc(Cl)c1[nH]c3c([nH]c12)c(Cl)cc1c(=O)c2ccccc2c(=O)c13	–	active: 12.4 µM
O=[N+]([O-])c1cc(C(F)(F)F)c(Cl)c([N+](=O)[O-])c1Nc1ncc(C(F)(F)F)cc1Cl	–	inconclusive: 0.938 µM
CCC[CH2][Sn]([Cl])([CH2]CCC)[CH2]CCC	–	active: 4.02 µM
OC(c1ccc(Cl)cc1)(c1ccc(Cl)cc1)C(Cl)(Cl)Cl	–	inconclusive: 0.106 µM
O=C(Nc1ccccc1)Nc1cnns1	–	active: 10.7 µM
CCCCCOC(=O)c1ccccc1C(=O)OCCCCC	–	active: 11.5 µM
O=C(N[C@H]1CN2CCC1CC2)c1ccc2c(c1)OCCO2	inactive	–
CCOc1cccc(C2(N3CCN(c4ccccc4)CC3)CCC(C)CC2)c1 (centres undefined)	–	inconclusive: 25 µM
C=C(C)C(=O)[O][Sn]([CH2]CCC)([CH2]CCC)[CH2]CCC	–	active: 8.77 µM
Cc1c(F)c(F)c(COC(=O)C2C(/C=C(\Cl)C(F)(F)F)C2(C)C)c(F)c1F (centres undefined)	inactive	–
CCOC(=O)C(C)OC(=O)c1cc(Oc2ccc(C(F)(F)F)cc2Cl)ccc1[N+](=O)[O-] (centres undefined)	–	inconclusive: 0.66 µM

target: human AKT serine/threonine Kinase 2 (AKT2), AKT2 (gene 208) (UniProt P31751); experiment: NVS_ENZ_hAKT2: NovaScreen (NVS) Enzymatic Assay for human AKT serine/threonine Kinase 2 (AKT2) (AID 2283141)
Summary of the method: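 Cell-free fluorescence/electrophoretic mobility shift readout of recombinant human AKT2 activity, 1 h after chemical dosing. Duplicate primary screen at 25 uM, then singleton concentration-response up to 50 uM; loss of signal versus DMSO baseline.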

Structure (SMILES)	AC50	outcome
COc1nc(C)nc(NC(=O)NS(=O)(=O)c2ccccc2CCC(F)(F)F)n1	inconclusive: 25 µM	–
O=[N+]([O-])c1c(Cl)c(Cl)c(Cl)c(Cl)c1Cl	inconclusive: 4.96 µM	–
Nc1c(Cl)c(Cl)nc(C(=O)O)c1Cl	–	inactive
O=C1CCCO1	–	inactive
Nc1c(Cl)cc([N+](=O)[O-])cc1Cl	–	inactive
CCC[CH2][Sn]([Cl])([CH2]CCC)[CH2]CCC	–	inactive
O=S(=O)(O)C(F)(F)C(F)(F)C(F)(F)C(F)(F)C(F)(F)C(F)(F)F	–	inactive
Cc1ccc(N=C=O)cc1N=C=O	–	inactive
CC(C)(C)c1ccc(O)cc1	–	inactive
O=C(O)C1C2CCC(O2)C1C(=O)O (centres undefined)	–	inactive
CC(C)(O)c1cnn2c(-c3ccc(F)c(-c4c(F)cccc4C#N)c3)cnc2n1	inconclusive: 25 µM	–
CCNc1nc(Cl)nc(NCC)n1	inconclusive: 25 µM	–
CC(C)(OO)c1ccccc1	–	inactive
c1cc2c3c(cccc3c1)CC2	inconclusive: 0.162 µM	–

Looked up by compound from the entries so far:
Structure (SMILES)	AC50	outcome
Nc1c(Cl)cc([N+](=O)[O-])cc1Cl	–	inactive
c1cc2c3c(cccc3c1)CC2	inconclusive: 0.162 µM	–

Reference: PubChem BioAssay (EPA / NIEHS)
